Assay results as given in the supplement of paper PMC10338343.
± gives the standard deviation. The list shows a part of the results, in another mix than the full data. The uncertainty is large for many entries.

System: MILI (PIWIL2) piRISC loaded with piRNA #1 (26 nt)
Test: pre-steady-state target cleavage rate (min^-1); MIWI and MILI are mouse PIWI proteins and EfPiwi is from a freshwater sponge; tags in brackets are library labels; higher = faster piRNA-guided slicing of the target
Conditions: guide: piRNA #1 5'p-UGAGGUAGUAGGUUGUAUAGUAUCCA; auxiliary factor: 500 nM mouse GTSF1
How it was run: (§1)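 Three pooled Cleave-'n-Seq trials supplied the data, with k3 capped at 0.0001 min^-1. In each, […] transcribed, DNA-blocked target RNA library and 1 nM active affinity-purified piRISC with one synthetic guide reacted in HEPES–potassium acetate buffer at 33 °C for 0–8 or 0–960 min, with or without 500 nM GTSF1 partner protein. Uncleaved targets were sequenced and normalised to depth and to weakly complementary targets. A burst-and-steady-state fit provided the pre-steady-state cleavage rate.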
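Note: 1 nM active piRISC with 0.1 nM target library at 33 °C single turnover.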

Sequence	pre-steady-state target cleavage rate
GGAGACCUAUCUAUACCAACCUACUACCUCA	0.00227 ± 0.0044
GGAGACCUAUGAAUUCAACGUACUACCUCA	0.00125 ± 0.0038
GGAGACCUAUGAUAUGUUGGCACUACCUCA	0.000286 ± 0.016
GGAGACCUUACUAUACAACCCUACUACCUCA	0.00102 ± 0.0067
GGAGACCUAUGAUAUGACACCUACUACCUCA	0.000989 ± 0.0076
GGAGACCUAUGAAUACUACCUACUACGUCA	0.00344 ± 0.0026
GGAGACCUAUGAUUACAAACCUACUACCUCA	0.000924 ± 0.0038
GGAGACCUAUGAUAUCAACCUCCUACCUCA	0.0026 ± 0.003
GGAGACCUAUGAUAUCAACCUACUACGAGA [g5:g15:cont:t1A]	0.000311 ± 0.017
GGAGACCUAUCUAUAAACCUACUACCUCA	0.003 ± 0.0031
GGAGUGGAUACUAUACAACCUAGUAGCUCA	0.00033 ± 0.0094
GGAGACCUAUGAUUACAACCAUGUACCUCA	0.00103 ± 0.0047
GGAGACCUAUGAUAACAACCUACUACGACA	0.000562 ± 0.0097
GGAGACCUAUGAUAACAACCUACAUGCUCA	0.00111 ± 0.0063
GGAGACCUAUGAUAUGUUGCUACUACCUUA	< 0.0001
GGAGACCUAUGAUAUCUACCAACUACCUCA	0.000232 ± 0.012
GGAGACCUAUGAUAUCAACCUACUACCCUCA	0.00107 ± 0.0048
GGAGACCUAUGAAUACAUGGUACUACCUCA	0.000293 ± 0.013
GGAGUGCAUACUAUACAACCUACUACCUGA	0.09 ± 0.011
GGAGACCUAUGAUAUCAACCUACUAACUCA	0.00173 ± 0.0037

Sequence	pre-steady-state target cleavage rate
GGAGACCUAUGAAUACGAACCUACUACCUCA	0.000331 ± 0.013
GGAGACCUAUGUAUAGAACCUACUAGCUCA	0.00212 ± 0.0036
GGAGACCUAUGAUUACAACCUACAUGCUCA	0.00131 ± 0.005
GGAGACCUAUGAUUACAACCUACUACUCA	0.000869 ± 0.0057
GGAGACCUAUGAAUUCAACCUACUACGUCA	0.000244 ± 0.017
GGAGACCUAUCUAUACUUGGAUGAUGGAGA [g15:g20:cont:t1A]	0.000213 ± 0.017
GGAGACCUAUGAAUACAACCAUGUACCUCA	0.000775 ± 0.0071
GGAGACCUAUGAUAUCAACCAACUACGUCA	0.000571 ± 0.0094
GGAGACCUAUGAUAACAACCUUGUACCUCA	0.00102 ± 0.0063
GGAGACCUAUGAAUACAACCAACUACCACA	0.00145 ± 0.0048
GGAGACCUAUGAUUACAACCAACAACCUCA	0.00249 ± 0.0038
GGAGACCUAUGAUAACAACCUACUACCCUCA	0.00211 ± 0.0024
GGAGACCUAUGAUAUCAACCUUGAUGGAGA [g10:g15:cont:t1A]	0.000374 ± 0.011
GGAGACCUAUGAUAUGUACCUACUACGUCA	0.000266 ± 0.011
GGAGACGAUACUAUACAUACCUACUACCUCA	0.00135 ± 0.0059
GGAGACCUAUGAUAACAACGUUCUACCUCA	0.000845 ± 0.0049
GGAGACCUAUGAUAUGUUGCUACUACCCA	0.000162 ± 0.018
GGAGACCUAUGAAUACAACCUACUACGACA	0.00245 ± 0.0039
GGAGACCUAUGAAUACAACCUUGUACCUCA	0.00106 ± 0.0057

System: MIWI (PIWIL1) piRISC loaded with piRNA #1 (30 nt)
Test: as above
Conditions: guide: piRNA #1 5'p-UGAGGUAGUAGGUUGUAUAGUAUCCAGAGG; auxiliary factor: 500 nM mouse GTSF1
How it was run: as §1

Sequence	pre-steady-state target cleavage rate
GGAGACCUAUCUAUACCAACCUACUACCUCA	0.000906 ± 0.0053
GGAGACCUAUGAAUUCAACGUACUACCUCA	0.000173 ± 0.012
GGAGACCUAUGAUAUGUUGGCACUACCUCA	0.00067 ± 0.0072
GGAGACCUUACUAUACAACCCUACUACCUCA	0.000108 ± 0.021
GGAGACCUAUGAUAUGACACCUACUACCUCA	0.000733 ± 0.005
GGAGACCUAUGAAUACUACCUACUACGUCA	0.00031 ± 0.0053
GGAGACCUAUGAUUACAAACCUACUACCUCA	0.000167 ± 0.013
GGAGACCUAUGAUAUCAACCUCCUACCUCA	0.00184 ± 0.0024
GGAGACCUAUGAUAUCAACCUACUACGAGA [g5:g15:cont:t1A]	0.000346 ± 0.02
GGAGACCUAUCUAUAAACCUACUACCUCA	0.000948 ± 0.0051
GGAGUGGAUACUAUACAACCUAGUAGCUCA	0.000461 ± 0.0078
GGAGACCUAUGAUUACAACCAUGUACCUCA	0.00105 ± 0.0049
GGAGACCUAUGAUAACAACCUACUACGACA	0.000204 ± 0.012
GGAGACCUAUGAUAACAACCUACAUGCUCA	0.000361 ± 0.013
GGAGACCUAUGAUAUGUUGCUACUACCUUA	0.000126 ± 0.016
GGAGACCUAUGAUAUCUACCAACUACCUCA	0.000112 ± 0.018
GGAGACCUAUGAUAUCAACCUACUACCCUCA	0.000277 ± 0.0083
GGAGACCUAUGAAUACAUGGUACUACCUCA	0.000688 ± 0.0083
GGAGUGCAUACUAUACAACCUACUACCUGA	0.513 ± 0.077
GGAGACCUAUGAUAUCAACCUACUAACUCA	0.000383 ± 0.005

Sequence	pre-steady-state target cleavage rate
GGAGACCUAUGAAUACGAACCUACUACCUCA	0.000988 ± 0.0051
GGAGACCUAUGUAUAGAACCUACUAGCUCA	0.000411 ± 0.0062
GGAGACCUAUGAUUACAACCUACAUGCUCA	0.000116 ± 0.019
GGAGACCUAUGAUUACAACCUACUACUCA	0.000242 ± 0.009
GGAGACCUAUGAAUUCAACCUACUACGUCA	0.000195 ± 0.017
GGAGACCUAUCUAUACUUGGAUGAUGGAGA [g15:g20:cont:t1A]	0.000351 ± 0.0092
GGAGACCUAUGAAUACAACCAUGUACCUCA	0.000876 ± 0.0046
GGAGACCUAUGAUAUCAACCAACUACGUCA	0.00067 ± 0.0062
GGAGACCUAUGAUAACAACCUUGUACCUCA	0.000117 ± 0.018
GGAGACCUAUGAAUACAACCAACUACCACA	0.000173 ± 0.015
GGAGACCUAUGAUUACAACCAACAACCUCA	0.000665 ± 0.0052
GGAGACCUAUGAUAACAACCUACUACCCUCA	0.000956 ± 0.0043
GGAGACCUAUGAUAUCAACCUUGAUGGAGA [g10:g15:cont:t1A]	0.000135 ± 0.01
GGAGACCUAUGAUAUGUACCUACUACGUCA	0.000174 ± 0.0079
GGAGACGAUACUAUACAUACCUACUACCUCA	0.000522 ± 0.012
GGAGACCUAUGAUAACAACGUUCUACCUCA	0.00039 ± 0.0094
GGAGACCUAUGAUAUGUUGCUACUACCCA	0.00018 ± 0.0095
GGAGACCUAUGAAUACAACCUACUACGACA	0.000376 ± 0.007
GGAGACCUAUGAAUACAACCUUGUACCUCA	0.000214 ± 0.011
